For 1 molecule, binding results are on record in patent US20210363232A1.

These are yes or no findings as the source states them, for the method shown. Some binding calls cover weakened binding; strength is not graded here.

The target in this assay is T1, Cyno IL-34 (cyno (cynomolgus monkey)) (UniProt G7Q1L3).
T1 sequence: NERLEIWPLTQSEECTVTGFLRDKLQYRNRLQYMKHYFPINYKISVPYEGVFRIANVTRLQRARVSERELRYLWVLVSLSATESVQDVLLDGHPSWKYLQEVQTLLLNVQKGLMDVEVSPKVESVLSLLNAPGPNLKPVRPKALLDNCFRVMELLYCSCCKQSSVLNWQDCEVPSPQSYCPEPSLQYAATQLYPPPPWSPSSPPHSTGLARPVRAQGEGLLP
The experiment in a line: MSD solution equilibrium titration at 37 C (Table 3).

B1: Antibody 1 (antibody, human IgG4 S228P, kappa, F234A L235A, V domains shown)
VH: EVQLLESGGGLVQPGGSLRLSCAASGFTFSSYATSWVRQAPGKGLEWVSAISHSGRSTYYADSVKGRFTISRDNSKNTLYLQMNSLRAEDTAVYYCARGRSSLDTWGQGTLVTVSS
VL: EIVLTQSPGTLSLSPGERATLSCRASQSISSAYLAWYQQKPGQAPRLLIYASSIRPTGIPDRFSGSGSGTDFTLTISPLEPEDFAVYYCSQYGDSLSFGGGTKVEIKR
Consider B1, for which the binding result was “binds”.
